Data reported in patent US10821126B2, “Agent for treating retinopathy” (CARNA HEALTH SUPPORT LTD., priority 2016, dated 2020).

Test system: spontaneous type 2 diabetes model db/db mouse
Assay: Effects on body weight, feed intake, urine volume and blood sugar in db/db mouse
Format: in vivo
Conditions: any of the dosage amounts 3, 1, 0.1, 0.01, 0.001 mg/kg/day, oral, 2 weeks
Description: The above-mentioned low dosage (0.01 mg/kg/day as canagliflozin) not showing an antihyperglycemic action was confirmed by the following method.
[…] Effects on body weight, feed intake, urine volume and blood sugar were confirmed.
FIGS. 6 and 7 show the results of fructosamine level which is an index for fasting blood sugar and average blood sugar levels when administering 3 mg/kg/day and 0.01 mg/kg/day of canagliflozin hydrate.

Cc1ccc([C@@H]2O[C@H](CO)[C@@H](O)[C@H](O)[C@H]2O)cc1Cc1ccc(-c2ccc(F)cc2)s1 [canagliflozin hydrate]
no significant change: body weight | feed intake | urine volume
